Measurements taken from PubChem BioAssay AID1508600 (Functional Genomics Laboratory (NCATS/FGL), 2020).
Among all 53,000 sequences or so, about 3,700 (7%) were called active.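 How the source made its calls: active means gene knockdowns whose robust z-score for IL-1 alpha signal is at least 2 or at most -2, so actives lie on both sides; inactive means the rest.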 The list shows a part of the results.

Assay: Components of the Cytosolic LPS Sensing Pathway: Gene Identification via Genome-wide siRNA Screen;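 further: robust z of the log signal after scaling to non-targeting control siRNA wells of the plate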
Settings: RAW264.7 macrophages, IL-1a HTRF, actives lie on both sides, screened at 100 nM (by protocol), cells primed 5 h with Pam3CSK4 first
In short: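 Mouse macrophage line RAW264.7 is transfected with siRNA (100 nM final), grown 48h, primed with TLR ligand Pam3CSK4 5 h and given intracellular LipidA 24 h. IL-1a in supernatant is read by HTRF and viability by luminescence.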

Row | Sequence | z-score
1 | GCCCAACCCGAUUUGCAGATT against Cyp4a10 | inactive: -1.24
2 | CCGGCUGUACAAAGAGAAUTT against Rnf34 | inactive: 0.132
3 | GGCUACAGUGCUUCAAAAUTT against Ttc24 | inactive: -0.293
4 | CGUGAUGUGGGAAAUGGCATT against Avpr2 | inactive: -1.23
5 | GGUCACUUUAGAUUUUGAATT against Stard13 | inactive: -0.987
6 | GGAAAAGGAAAGCUUUAGUTT against Fut4 | inactive: 0.632
7 | CCAACAAUGUUUAAAGGAUTT against Olfr476 | inactive: -0.32
8 | GGGCAGUGAGAAGAGAUUCTT against H2-Q1 | inactive: 0.421
9 | GGCUUCGUAGCUUUACAAATT against Abca6 | inactive: -0.846
10 | CGCACACGAUGUGGAAAUGTT against Ptger1 | inactive: -0.0322
11 | GUAAUUCACAGCCUCUCCGTT against Pitx3 | inactive: 1.03
12 | GCCAUAGCGAUCACUACUGTT against Spi1 | inactive: -1.07
13 | CCUUGUCAAUCAUUAUCUGTT against Olfr923 | inactive: 0.118
14 | GGCUUCUCUCUAUGUAUUCTT against Tas2r116 | inactive: -0.441
15 | CGGCAUCAUAUUGUGCGAATT against Cnn3 | inactive: 1.37
16 | CGAGGAGAUAUCCAUCAAUTT against Nbr1 | inactive: -1.02
17 | GGAAGUGGUUGCUAAGCGATT against Prkn | inactive: 0.0765
18 | CGGUCCUUGAAAGAGAUGGTT against Prkcsh | inactive: 0.315
19 | CCUUAGAGAAAAUUAUUGCTT against Hgf | inactive: 0.315
20 | GGGAGAGCUGCUGUUUUUCTT against Rxfp3 | inactive: 1.46
21 | GGAAGUAGCAACAAGCUACTT against Brd2 | inactive: 0.824
22 | CCGACUGCUUAAUUACAAGTT against Efcab9 | inactive: 0.703
23 | GCAUGAAUCCAGCUCGAUCTT against Aqp4 | inactive: -0.375

Row | Sequence | z-score
24 | GGAGUUUGUAUCAAACUUATT against Zcchc8 | inactive: 0.0121
25 | GGUGGAAGCAAUUUUAAAUTT against Trpc7 | inactive: 0.384
26 | GGGAAGAGCCCUAAUAUUATT against Aldh1a2 | inactive: -0.098
27 | GGAGAAAACUCUAAAUAACTT against Klra2 | inactive: -0.35
28 | GGUUCAGUCCUUCUUAACATT against Fam114a1 | inactive: -1.5
29 | GCGGCAUCUAAAGCUCCACTT against Cdh1 | inactive: -0.313
30 | GCAUCCUACGCAUUAAAUCTT against Olfr146 | inactive: -1.17
31 | GCACAACGUAAAAACAUCATT against Enox2 | inactive: 0.112
32 | CGAGCAGACCUCUAUACAGTT against Nit2 | inactive: -1.55
33 | GGGUCUGAAUGACAGCAUCTT against Cd53 | inactive: 1.04
34 | GGUAACAUACUAAAAGAAGTT against Vmn2r10 | inactive: -1.21
35 | GGAAGCAGCUACUGGAAGATT against Cyth4 | inactive: -0.732
36 | CCUUCAAUGAGAGCUUUAGTT against Olfr1157 | inactive: 0.797
37 | GGAUCUUCAAUUCGUUGGUTT against Cachd1 | active: 2.75
38 | GGCUUCACCAAAUGUGCAGTT against Mrpl50 | inactive: -0.768
39 | GCACAUCAGUACAUUUCACTT against Agap1 | inactive: -0.0313
40 | CCUUGCUGUCAUUUUGCUUTT against Tsr3 | inactive: 0.96
41 | GCCUAACUGCCCAGAAUCUTT against Psd4 | inactive: 0.207
42 | CGGAUGAAUUUGAUGGUCUTT against Ctbp2 | inactive: -0.872
43 | GCUGGACAUCGACUUUGGATT against Prnd | inactive: -1.54
44 | CCUGGCUAAUGACUAGCUCTT against Muc15 | inactive: 0.875
45 | GCUGAAGGAUCCCAUUAGATT against Cbx2 | inactive: -1.68
46 | GCUCUUCUCUGUACGACAUTT against Bcas3 | inactive: 1.28

Fetched one by one from above:
Row | Sequence | z-score
32 | CGAGCAGACCUCUAUACAGTT against Nit2 | inactive: -1.55
45 | GCUGAAGGAUCCCAUUAGATT against Cbx2 | inactive: -1.68

(cont.)

Row | Sequence | z-score
47 | GGGAGCUUUGGAAAUUUUATT against Zbtb3 | inactive: 0.451
48 | GGUAUGUUUUCCUUAAGUGTT against Cdc42se1 | inactive: 1.92
49 | GGUGUUUGGCAAUCUCAAUTT against Oplah | inactive: 1.75
50 | GGAACUAUCCAGUAGGUAGTT against Mill2 | inactive: 0.846
51 | CCACGUGGUUAUCUAUUAUTT against Armcx5 | inactive: 0.273
52 | CCGGACUUUAUAUGACAACTT against Cd80 | inactive: 0.785
53 | GGAAGUUUCAGAAAACAUGTT against Nasp | inactive: -0.237
54 | GCUAGUUGCAUUCUGUGCUTT against Rpl7l1 | inactive: 0.439
55 | GGAGCUGUUUUCUGUGAAGTT against Mrps2 | inactive: 0.0283
56 | GGAAUUCAAGAAAAGGAUCTT against Plvap | inactive: 0.225
57 | GGCUAUGUACAAGACUAUGTT against Eif3j1 | inactive: -0.488
58 | CCCUAUUAAUCUCAUUGUGTT against P2rx4 | inactive: 0.555
59 | GGAUGGACAAAAUACUUAATT against B230354K17Rik | inactive: 1.99
60 | GGACAGGCUCUACCAGUAUTT against Syt15 | inactive: 0.151
61 | CGCGACUUCCACAAACCUGTT against LOC574530 | inactive: -1.15
62 | GGGUGUAAUAUCAAAAAAGTT against Atp7a | inactive: 0.356
63 | UUGUGGGCUUAUGGAUAUUTT against 9430025C20Rik | inactive: -0.659
64 | GCUGUCAGAGUGGUGAUAUTT against Zdhhc7 | inactive: 0.513
65 | GGCUAUUAGGUUUGAAAUCTT against Grsf1 | inactive: 0.351
66 | GGAAGGUGAAGCCAGUUUCTT against Traf3ip2 | active: 2.02
67 | CCACGAGAUGGAAUAUCGCTT against Cyyr1 | inactive: -1.79
68 | GGAUGCCAGAAGAAUAUUCTT against Pnlip | active: 2.43
